Results from PMC11302875.
Results are given in words; binding and its absence hold for the method and conditions named. Binding seen in cells or lysates may run through a third protein. Some binding calls cover weakened binding; strength is not graded here. For some assays here: Where a sequence is shown, tags or fusion partners need not be part of it.

By UniProt entry, the sequences of proteins in these tests, tags left out.
UniProt Q99814: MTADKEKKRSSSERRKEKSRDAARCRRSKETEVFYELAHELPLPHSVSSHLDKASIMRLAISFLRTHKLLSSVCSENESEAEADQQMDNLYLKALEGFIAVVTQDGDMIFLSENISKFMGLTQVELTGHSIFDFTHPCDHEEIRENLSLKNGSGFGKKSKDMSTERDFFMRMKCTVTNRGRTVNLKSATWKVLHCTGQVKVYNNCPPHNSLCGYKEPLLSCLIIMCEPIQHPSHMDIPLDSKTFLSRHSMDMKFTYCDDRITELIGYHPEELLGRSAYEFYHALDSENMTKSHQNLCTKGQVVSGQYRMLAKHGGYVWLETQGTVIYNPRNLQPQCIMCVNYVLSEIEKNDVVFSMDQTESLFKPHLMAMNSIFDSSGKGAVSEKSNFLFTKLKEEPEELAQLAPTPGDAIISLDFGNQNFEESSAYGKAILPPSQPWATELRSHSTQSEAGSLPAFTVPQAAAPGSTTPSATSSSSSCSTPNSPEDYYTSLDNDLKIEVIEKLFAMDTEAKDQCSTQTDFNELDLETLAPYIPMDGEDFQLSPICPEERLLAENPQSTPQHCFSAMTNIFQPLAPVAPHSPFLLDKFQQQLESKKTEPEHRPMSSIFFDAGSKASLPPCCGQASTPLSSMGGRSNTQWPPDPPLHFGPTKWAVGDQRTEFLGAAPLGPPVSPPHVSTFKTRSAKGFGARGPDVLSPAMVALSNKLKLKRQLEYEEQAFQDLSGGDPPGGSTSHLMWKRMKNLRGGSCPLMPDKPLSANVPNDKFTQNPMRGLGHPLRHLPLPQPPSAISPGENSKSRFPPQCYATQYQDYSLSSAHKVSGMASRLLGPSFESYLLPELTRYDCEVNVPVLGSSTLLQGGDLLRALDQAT

Assays:
[1] = molecular target: T1, NRF2 (human (endogenous in HUVECs)) (UniProt Q16236); assay: co-IP; nuclear proteins of HUVECs expressing HA-HIF-2α-WT or mutant, medium with 5 mM or 25 mM glucose
T1 sequence: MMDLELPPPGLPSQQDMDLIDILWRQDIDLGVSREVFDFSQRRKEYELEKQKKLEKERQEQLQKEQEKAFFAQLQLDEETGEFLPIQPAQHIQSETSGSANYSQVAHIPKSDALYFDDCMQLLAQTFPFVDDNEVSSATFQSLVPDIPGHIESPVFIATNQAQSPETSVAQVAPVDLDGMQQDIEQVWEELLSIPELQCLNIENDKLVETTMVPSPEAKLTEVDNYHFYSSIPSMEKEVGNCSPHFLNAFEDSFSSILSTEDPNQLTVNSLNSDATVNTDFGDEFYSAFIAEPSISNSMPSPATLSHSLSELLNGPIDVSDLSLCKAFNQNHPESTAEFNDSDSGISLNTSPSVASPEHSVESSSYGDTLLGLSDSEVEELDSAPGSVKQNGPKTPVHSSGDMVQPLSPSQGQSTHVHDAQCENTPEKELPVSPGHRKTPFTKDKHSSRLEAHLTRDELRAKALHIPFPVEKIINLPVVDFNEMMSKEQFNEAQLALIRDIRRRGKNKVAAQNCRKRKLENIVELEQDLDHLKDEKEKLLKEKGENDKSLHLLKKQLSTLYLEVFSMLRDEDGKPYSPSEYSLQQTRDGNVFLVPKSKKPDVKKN

[2] = molecular target: T1, NRF2 (human (endogenous in HUVECs)); assay: co-IP; HUVEC lysate, 500 μg total protein with primary antibody and protein A/G beads overnight at 4°C, Western blot; cells at 5-25 mM glucose (Fig. 4I) or at 25 mM glucose with Oltipraz (Fig. 8B)
Myc-NRF2 (human) = molecular target: T2, Myc-NRF2 (human) (UniProt Q16236); assay: co-IP; HUVECs at 5 mM and 25 mM glucose; NRF2 immunoprecipitated with an anti-Myc antibody, HIF-2α detected by Western blot
T2 sequence: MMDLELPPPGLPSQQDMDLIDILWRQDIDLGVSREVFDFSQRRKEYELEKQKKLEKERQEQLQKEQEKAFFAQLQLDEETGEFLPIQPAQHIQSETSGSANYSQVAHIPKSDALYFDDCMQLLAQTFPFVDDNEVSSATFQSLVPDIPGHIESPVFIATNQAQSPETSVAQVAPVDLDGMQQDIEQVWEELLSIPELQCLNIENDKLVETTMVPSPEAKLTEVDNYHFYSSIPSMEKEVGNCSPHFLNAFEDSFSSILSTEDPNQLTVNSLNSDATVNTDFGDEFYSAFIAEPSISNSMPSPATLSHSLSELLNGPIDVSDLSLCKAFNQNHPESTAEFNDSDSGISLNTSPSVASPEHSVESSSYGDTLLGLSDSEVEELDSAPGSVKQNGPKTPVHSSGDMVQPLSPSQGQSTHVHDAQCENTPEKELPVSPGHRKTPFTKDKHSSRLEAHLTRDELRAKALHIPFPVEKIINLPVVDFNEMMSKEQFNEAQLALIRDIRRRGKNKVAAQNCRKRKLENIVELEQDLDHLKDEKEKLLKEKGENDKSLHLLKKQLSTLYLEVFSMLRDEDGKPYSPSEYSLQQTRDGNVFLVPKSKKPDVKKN

[3] = molecular target: T1, NRF2 (human (endogenous in HUVECs)); assay: co-IP; HUVEC lysate, 500 μg total protein with primary antibody and protein A/G beads overnight at 4°C, Western blot; cells at 5-25 mM glucose (Fig. 4I) or at 25 mM glucose with Oltipraz (Fig. 8B); remark: listed apart in the source
HA-HIF-2α (human) = HA-HIF-2α (human) (UniProt Q99814); assay: co-IP; FLAG-tagged NRF2 truncations and HA-tagged HIF-2α expressed in HEK293T cells; immunoprecipitation with an anti-HA antibody, Western blot

Q: For “HA-HIF-2α-WT (from UniProt Q99814 1-870)”, which binding [1] is on record?
A: binds

Q: HIF-2α (from UniProt Q99814 1-870) was tested. Which binding [2] did it give?
A: binds

Q: And the binding (Myc-NRF2 (human))?
A: binds

B1: Sirt2 (protein, UniProt Q8IXJ6 1-389)
chain: MAEPDPSHPLETQAGKVQEAQDSDSDSEGGAAGGEADMDFLRNLFSQTLSLGSQKERLLDELTLEGVARYMQSERCRRVICLVGAGISTSAGIPDFRSPSTGLYDNLEKYHLPYPEAIFEISYFKKHPEPFFALAKELYPGQFKPTICHYFMRLLKDKGLLLRCYTQNIDTLERIAGLEQEDLVEAHGTFYTSHCVSASCRHEYPLSWMKEKIFSEVTPKCEDCQSLVKPDIVFFGESLPARFFSCMQSDFLKVDLLLVMGTSLQVQPFASLISKAPLSTPRLLINKEKAGQSDPFLGMIMGLGGGMDFDSKKAYRDVAWLGECDQGCLALAELLGWKKELEDLVRREHASIDAQSGAGVPNPSTSASPKKSPPPAKDEARTTEREKPQ
Q: With B1 as the molecule, how does the binding [3] read?
A: binds

B2: FLAG-tagged NRF2 (1-605aa) (protein, UniProt Q16236 1-605)
chain: MMDLELPPPGLPSQQDMDLIDILWRQDIDLGVSREVFDFSQRRKEYELEKQKKLEKERQEQLQKEQEKAFFAQLQLDEETGEFLPIQPAQHIQSETSGSANYSQVAHIPKSDALYFDDCMQLLAQTFPFVDDNEVSSATFQSLVPDIPGHIESPVFIATNQAQSPETSVAQVAPVDLDGMQQDIEQVWEELLSIPELQCLNIENDKLVETTMVPSPEAKLTEVDNYHFYSSIPSMEKEVGNCSPHFLNAFEDSFSSILSTEDPNQLTVNSLNSDATVNTDFGDEFYSAFIAEPSISNSMPSPATLSHSLSELLNGPIDVSDLSLCKAFNQNHPESTAEFNDSDSGISLNTSPSVASPEHSVESSSYGDTLLGLSDSEVEELDSAPGSVKQNGPKTPVHSSGDMVQPLSPSQGQSTHVHDAQCENTPEKELPVSPGHRKTPFTKDKHSSRLEAHLTRDELRAKALHIPFPVEKIINLPVVDFNEMMSKEQFNEAQLALIRDIRRRGKNKVAAQNCRKRKLENIVELEQDLDHLKDEKEKLLKEKGENDKSLHLLKKQLSTLYLEVFSMLRDEDGKPYSPSEYSLQQTRDGNVFLVPKSKKPDVKKN
Q: With B2 as the molecule, how does the binding (HA-HIF-2α (human)) read?
A: binds
